# PubChem BioAssay AID1347075 (National Center for Advancing Translational Sciences (NCATS), 2019)
# Hit rate of the full screen: of about 400,000 compounds, about 5,500 (1.4%) were called active. The shares of active, inactive and inconclusive entries below differ from those in the screen. Calls follow the shape of the dose curve; as a rule, active = well fitted cell-killing curve with a large enough effect; inconclusive = small, poorly fitted or top-dose-only effect, or effect the other way; inactive = flat fitted curve, though single readings scatter. A potency beside an inconclusive call is a rough fit, not a confirmed value.
# Assay: qHTS assay for MDR1-selective chemotherapeutics: Primary screen using the parental adenocarcinoma cell KB-3-1; also: nearly all actives have a fitted effect of over 60% in size
# Conditions: KB-3-1 viability, CellTiter-Glo ATP luminescence, 72 h; activity change, negative = cytotoxic: at 46.1 µM (top of the series)
# How it was run: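 KB-3-1 parental drug-naive adenocarcinoma cells in DMEM/10% FBS, incubated 72 h at 37 C with pin-transferred compounds across a concentration series. Viability by CellTiter-Glo luminescence; concentration-response curves fitted after normalization.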
# % is scaled to controls: 0 for no effect and ±100 for the full control effect; potency is read from the fitted curve at half-maximal effect.
Structure (SMILES),Potency,"activity change, negative = cytotoxic"
COc1ccc(/C=C2/C(=O)ON=C2c2ccccc2)cc1OC,"inconclusive: 29.1 µM [cytotoxic, single point]",
COC(=O)c1ccc(-c2nc3ccccc3[nH]2)cc1,"inconclusive: 29.1 µM [cytotoxic, single point]",
CCCN(Cc1cc2cc(OC)ccc2[nH]c1=O)C(=O)c1ccncc1,"inconclusive: 29.1 µM [cytotoxic, single point]",
C=CCn1c(=O)c(C(=O)Nc2ncccc2C)c(O)c2ccccc21,inactive,
Cn1c(=O)oc2cc(S(=O)(=O)N3CCC(C(=O)N4CCN(c5ccc(F)cc5)CC4)CC3)ccc21,"inconclusive: 1.84 µM [cytotoxic, full curve, poor fit]",
CC1CCN(S(=O)(=O)c2ccc3c(ccn3CCC(=O)NC(C)C)c2)CC1,"inconclusive: 25.9 µM [cytotoxic, single point]",
O=C(NCc1cccs1)c1ccc2ccccc2n1,inactive,
CSc1cccc(CN2CCC(Oc3ccc(C(=O)N4CCCCC4)cc3)CC2)c1,"inconclusive: 29.1 µM [cytotoxic, single point]",
C=CCN=c1scc(-c2ccc3c(c2)NC(=O)CO3)n1/N=C(\C)c1ccccn1,active: 5.17 µM,
O=C(COc1ccccc1)NC1CC(=O)N(c2ccc3c(c2)OCCO3)C1 (stereo not given),"inconclusive: 29.1 µM [rising, single point]",
O=C(CCNC(=O)C1CCN(S(=O)(=O)c2ccccc2)CC1)NCc1ccncc1,"inconclusive: 29.1 µM [rising, single point]",
COCCn1c(SCC(=O)Nc2cccnc2Cl)nc2cc(Cl)ccc2c1=O,inactive,
Cc1ccc(Cl)cc1N1CCN(C(CC(C)C)c2nnnn2CC2CCCO2)CC1 (stereo not given),"inconclusive: 29.1 µM [cytotoxic, single point]",
CC(C)(C)C1CCC(C(=O)Nc2ccc(N3CCOCC3)cc2N2CCOCC2)CC1 (stereo not given),inactive,
Cc1ccccc1Cn1c(CN2CCCC(C)C2)nc2c1c(=O)n(C)c(=O)n2C (stereo not given),inactive,
COc1ccc(N(C(=O)c2ccco2)C(C(=O)NC2CCCC2)c2ccc(N3CCOCC3)cc2)c(OC)c1 (stereo not given),"inconclusive: 29.1 µM [rising, single point]",
CCC(c1nnnn1-c1c(C)cccc1C)N1CCCN(Cc2ccc(F)cc2)CC1 (stereo not given),inactive,
Cc1cccc2c1N(CCOc1ccc(C(C)(C)C)cc1)C(=O)C2=O,"inconclusive: 29.1 µM [cytotoxic, single point]",
CCOc1ccc(C(=O)c2cn(CC(=O)Nc3ccc(Cl)cc3)c3cc4c(cc3c2=O)OCCO4)cc1,"inconclusive: 20.6 µM [cytotoxic, single point]",
Cc1ccc2nc(C)cc(Nc3ccc([N+](=O)[O-])cc3)c2c1,"inconclusive: 16.4 µM [cytotoxic, partial curve]",
CCOc1cccc2c1OC(c1cc(OC)c(OC)c(OC)c1)N1N=C(c3ccc(C)o3)CC21 (stereo not given),inactive,
CCCC(=O)N1CCN(c2nc3ccc(Cl)cc3s2)CC1,active: 18.4 µM,
COc1cc([N+](=O)[O-])ccc1NC(=O)CN1CCOCC1,inactive,

Structure (SMILES),Potency,"activity change, negative = cytotoxic"
Cc1ccc2nc(-c3ccccc3)cn2c1,active: 11.6 µM,
O=C(CNc1ccccc1)N/N=C/c1ccc([N+](=O)[O-])o1,"inconclusive: 29.1 µM [cytotoxic, single point]",
O=C1CC(/C=C/c2ccccc2)=Nc2ccccc2N1,"inconclusive: 18.4 µM [cytotoxic, single point]",
CC(C)(C)OC(=O)N1CCC(c2c(C(=O)NCCN3CCC(Cc4ccccc4)CC3)cnn2-c2ccc(F)cc2)CC1,"inconclusive: 29.1 µM [cytotoxic, single point]",
CN1CCN(c2nn3c(=O)c4ccccc4nc3s2)CC1,inactive,
CCOC(OCC)c1cn(Cc2ccc(C(=O)c3ccccc3)cc2)nn1,active: 18.4 µM,
Cc1ccc(S(=O)(=O)N2CCCCC2CCNC(=O)C(=O)NCc2cccnc2)cc1 (stereo not given),active: 8.2 µM,
COc1ccccc1NC(=O)CSc1nnc(-c2ccoc2C)o1,active: 11.6 µM,
CCC(C)(C)n1nnnc1C(c1ccccc1)N1CCc2ccccc2C1 (stereo not given),"inconclusive: 23.1 µM [cytotoxic, single point]",
COC(=O)C1=C(C)N(CCCC(=O)O)C(=O)NC1c1cccc(Cl)c1Cl (stereo not given),"inconclusive: 7.31 µM [rising, partial curve, poor fit]",
CCc1c(C)nc2cc(-c3ccc(OC)c(OC)c3)nn2c1NCC1CC1,"inconclusive: 29.1 µM [cytotoxic, partial curve, poor fit]",
COc1ccc(C(=O)Nc2cccc(-c3ccc4nncn4n3)c2)cc1OC,"inconclusive: 32.6 µM [rising, single point]",
CCCCNC(=O)C1=C(N)C(C(=O)Nc2ccc(C)c(S(=O)(=O)N3CCCCC3)c2)SC1=Nc1ccc(C)cc1C (stereo not given),"inconclusive: 29.1 µM [cytotoxic, single point]",
Cc1ccc2[nH]c(CSc3nnc(NC(=O)c4ccc(Cl)cc4)s3)cc(=O)c2c1,inactive,
COc1ccc(NS(=O)(=O)c2ccc3oc(SC)nc3c2)cc1,"inconclusive: 16.4 µM [cytotoxic, partial curve, poor fit]",
CC(=O)c1cccc(NC(=S)NC(=O)c2cccc(C)c2)c1,"inconclusive: 20.6 µM [cytotoxic, single point]",
COc1ccc(NC(=S)NC(=O)c2ccc3c(c2)OCCO3)cc1,inactive,
COc1ccc(-n2nnnc2SCC(=O)NCCc2ccccc2)cc1OC,,inconclusive: -45.7%
CCc1ccc(OCC2c3cc(OC)c(OC)cc3CCN2C(=O)COc2ccccc2)cc1 (stereo not given),inactive,
Cc1ccc(CCNC(=O)C2CCN(Cc3nc(-c4ccccc4C)oc3C)CC2)cc1,"inconclusive: 23.1 µM [cytotoxic, single point]",
Cc1ccc(Cn2nnc3c(=O)n(CC(=O)NCc4ccccc4)cnc32)cc1,"inconclusive: 7.31 µM [cytotoxic, partial curve]",
Cc1oc2c(c1C(=O)O)C(=O)c1ccccc1C2=O,"inconclusive: 23.1 µM [cytotoxic, single point]",

# Two compounds picked at random from the list so far, as already listed:
Structure (SMILES),Potency,"activity change, negative = cytotoxic"
Cn1c(=O)oc2cc(S(=O)(=O)N3CCC(C(=O)N4CCN(c5ccc(F)cc5)CC4)CC3)ccc21,"inconclusive: 1.84 µM [cytotoxic, full curve, poor fit]",
CC(C)(C)C1CCC(C(=O)Nc2ccc(N3CCOCC3)cc2N2CCOCC2)CC1 (stereo not given),inactive,
